Experimental data published in patent US20180369403A1 (University of Texas, published 2018).
These are yes or no findings as the source states them, for the method shown. Some results given as binding are weak or reduced against the parent protein; the word gives no strength.

By UniProt entry, the sequences of proteins in these tests, tags left out. Residues count along the entry.
UniProt Q9BXB1, residues 25-951: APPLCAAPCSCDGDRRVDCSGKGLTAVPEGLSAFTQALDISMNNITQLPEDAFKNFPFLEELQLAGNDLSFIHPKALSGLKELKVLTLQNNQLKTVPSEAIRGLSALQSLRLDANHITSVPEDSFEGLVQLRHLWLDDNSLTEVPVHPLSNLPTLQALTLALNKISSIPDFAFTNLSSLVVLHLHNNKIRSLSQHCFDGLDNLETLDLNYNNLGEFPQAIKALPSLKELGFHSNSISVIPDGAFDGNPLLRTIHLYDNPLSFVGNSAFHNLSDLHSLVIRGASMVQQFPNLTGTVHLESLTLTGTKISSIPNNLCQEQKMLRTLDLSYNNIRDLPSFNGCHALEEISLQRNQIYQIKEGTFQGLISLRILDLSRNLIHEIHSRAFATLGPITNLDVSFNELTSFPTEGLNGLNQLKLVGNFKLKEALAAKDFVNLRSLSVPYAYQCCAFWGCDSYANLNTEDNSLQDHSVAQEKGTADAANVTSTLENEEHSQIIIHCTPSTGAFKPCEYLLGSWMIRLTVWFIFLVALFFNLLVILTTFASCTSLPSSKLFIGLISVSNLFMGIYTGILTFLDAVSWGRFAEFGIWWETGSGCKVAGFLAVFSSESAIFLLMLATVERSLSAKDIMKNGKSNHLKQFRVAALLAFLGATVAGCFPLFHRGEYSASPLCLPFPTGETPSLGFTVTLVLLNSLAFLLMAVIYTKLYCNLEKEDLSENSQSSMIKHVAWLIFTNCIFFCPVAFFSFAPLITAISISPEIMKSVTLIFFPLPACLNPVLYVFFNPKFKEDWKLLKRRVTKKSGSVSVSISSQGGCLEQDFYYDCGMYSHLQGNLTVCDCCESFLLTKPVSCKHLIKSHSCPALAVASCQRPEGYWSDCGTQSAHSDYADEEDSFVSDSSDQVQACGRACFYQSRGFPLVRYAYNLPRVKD
UniProt Q2MKA7, residues 21-263: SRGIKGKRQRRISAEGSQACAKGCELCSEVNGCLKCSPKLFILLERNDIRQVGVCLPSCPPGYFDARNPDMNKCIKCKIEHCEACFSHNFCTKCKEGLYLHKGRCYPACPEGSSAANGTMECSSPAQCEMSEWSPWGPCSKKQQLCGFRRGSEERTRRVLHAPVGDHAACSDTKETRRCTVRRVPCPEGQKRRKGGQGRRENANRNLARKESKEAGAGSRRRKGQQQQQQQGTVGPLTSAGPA

Target: human LGR4 (leucine-rich repeat-containing G-protein coupled receptor 4) (human) (UniProt Q9BXB1)
Experiment: co-internalisation in A549 cells, microscopy

binding: binds
Substance: RSPO1-Fc (from UniProt Q2MKA7 21-263) (Fc fusion)
